According to paper PMC6328563:
Results are given in words; binding and its absence hold for the method and conditions named. In cells and extracts the contact can be indirect. Some results given as binding are weak or reduced against the parent protein; the word gives no strength.

Amino acid sequences for entries named in this document (tags omitted).
UniProt P31274: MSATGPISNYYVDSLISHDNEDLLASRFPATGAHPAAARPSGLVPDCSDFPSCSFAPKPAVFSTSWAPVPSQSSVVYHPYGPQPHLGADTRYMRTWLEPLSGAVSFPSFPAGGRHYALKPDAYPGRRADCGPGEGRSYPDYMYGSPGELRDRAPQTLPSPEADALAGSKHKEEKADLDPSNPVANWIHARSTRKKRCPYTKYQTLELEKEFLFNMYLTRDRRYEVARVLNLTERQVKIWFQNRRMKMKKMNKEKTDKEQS
UniProt O15054: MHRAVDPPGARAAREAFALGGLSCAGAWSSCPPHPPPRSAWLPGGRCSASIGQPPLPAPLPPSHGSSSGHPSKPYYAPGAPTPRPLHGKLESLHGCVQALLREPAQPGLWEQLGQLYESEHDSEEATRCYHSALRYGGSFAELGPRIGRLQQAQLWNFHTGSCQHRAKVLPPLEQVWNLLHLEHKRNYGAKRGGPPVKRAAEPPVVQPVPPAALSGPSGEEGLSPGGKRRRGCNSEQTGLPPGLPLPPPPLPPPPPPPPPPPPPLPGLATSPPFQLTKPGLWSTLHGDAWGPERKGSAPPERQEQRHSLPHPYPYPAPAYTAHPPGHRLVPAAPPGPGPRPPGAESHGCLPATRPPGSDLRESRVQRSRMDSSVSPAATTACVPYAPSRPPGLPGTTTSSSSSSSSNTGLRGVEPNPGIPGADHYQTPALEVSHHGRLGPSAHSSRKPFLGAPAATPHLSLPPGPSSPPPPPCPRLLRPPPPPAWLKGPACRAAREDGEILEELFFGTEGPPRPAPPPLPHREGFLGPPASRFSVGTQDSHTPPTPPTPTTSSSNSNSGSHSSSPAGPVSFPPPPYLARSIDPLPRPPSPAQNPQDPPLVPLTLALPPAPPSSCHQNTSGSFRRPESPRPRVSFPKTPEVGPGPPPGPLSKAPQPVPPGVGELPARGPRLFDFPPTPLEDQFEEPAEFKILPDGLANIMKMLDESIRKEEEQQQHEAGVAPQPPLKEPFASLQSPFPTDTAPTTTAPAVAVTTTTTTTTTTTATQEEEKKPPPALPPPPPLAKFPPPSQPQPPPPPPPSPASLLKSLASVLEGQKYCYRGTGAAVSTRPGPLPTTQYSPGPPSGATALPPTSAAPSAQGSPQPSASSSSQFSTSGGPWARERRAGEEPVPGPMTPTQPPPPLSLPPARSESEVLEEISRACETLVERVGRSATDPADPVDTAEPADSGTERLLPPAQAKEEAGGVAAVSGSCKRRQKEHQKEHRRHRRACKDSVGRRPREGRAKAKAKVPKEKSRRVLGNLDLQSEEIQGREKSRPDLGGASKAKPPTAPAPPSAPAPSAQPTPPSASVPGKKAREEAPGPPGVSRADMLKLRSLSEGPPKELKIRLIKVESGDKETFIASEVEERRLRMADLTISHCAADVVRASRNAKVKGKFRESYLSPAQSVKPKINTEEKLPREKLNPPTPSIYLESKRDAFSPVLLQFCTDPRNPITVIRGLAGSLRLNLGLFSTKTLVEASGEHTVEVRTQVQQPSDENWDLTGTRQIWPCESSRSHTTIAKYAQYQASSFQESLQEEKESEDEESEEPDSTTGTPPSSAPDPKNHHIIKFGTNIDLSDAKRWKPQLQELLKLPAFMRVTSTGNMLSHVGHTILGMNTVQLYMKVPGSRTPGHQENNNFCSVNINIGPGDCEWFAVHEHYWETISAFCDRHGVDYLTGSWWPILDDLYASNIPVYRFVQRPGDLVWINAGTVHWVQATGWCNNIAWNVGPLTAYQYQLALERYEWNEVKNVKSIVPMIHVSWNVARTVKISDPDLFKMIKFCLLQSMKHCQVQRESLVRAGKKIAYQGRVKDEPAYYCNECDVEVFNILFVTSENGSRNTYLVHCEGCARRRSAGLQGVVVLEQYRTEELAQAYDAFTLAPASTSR

Target: Myc-tagged HOXC9 (UniProt P31274)
Test: co-IP; Dynabeads Co-IP kit, detergent lysis, extraction buffer with 150 mM NaCl and 10 µg/ml DNase I; extracts of about 1 x 10^7 BE(2)-C_tetoff-myc-HOXC9 cells (6 days without doxycycline) incubated overnight at 4 °C with Protein G Dynabeads coated with mouse anti-Myc tag (clone 4A6) or mouse IgG; immunoblot with anti-KDM6B and anti-Myc tag

For KDM6B (from UniProt O15054 1-1643), the binding was “binds”.
